From the supplement of paper PMC12819154, “High-throughput peptide-centric local stability assay extends protein–ligand identification to membrane proteins, tissues and bacteria” (Nature Structural & Molecular Biology, 2025)
The list shows a part of the results. Small differences around the control level are noise.

Amino acid sequences for entries named in this document (tags omitted). A change or cut given only in a name is not applied to a line headed by its entry.
UniProt Q96LR5: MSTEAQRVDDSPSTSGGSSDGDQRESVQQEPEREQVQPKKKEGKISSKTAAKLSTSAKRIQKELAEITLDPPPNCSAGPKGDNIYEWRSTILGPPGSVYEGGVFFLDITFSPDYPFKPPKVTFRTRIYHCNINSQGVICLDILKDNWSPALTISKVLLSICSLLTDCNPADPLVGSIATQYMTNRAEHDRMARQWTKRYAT
UniProt Q96S99: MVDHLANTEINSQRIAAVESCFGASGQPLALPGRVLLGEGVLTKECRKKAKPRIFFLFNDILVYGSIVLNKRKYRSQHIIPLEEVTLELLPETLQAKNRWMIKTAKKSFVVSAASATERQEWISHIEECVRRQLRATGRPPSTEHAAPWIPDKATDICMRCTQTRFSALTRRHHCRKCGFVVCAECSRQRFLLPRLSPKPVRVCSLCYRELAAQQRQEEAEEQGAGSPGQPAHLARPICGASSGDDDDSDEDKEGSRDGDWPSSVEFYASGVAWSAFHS
UniProt Q96HE7: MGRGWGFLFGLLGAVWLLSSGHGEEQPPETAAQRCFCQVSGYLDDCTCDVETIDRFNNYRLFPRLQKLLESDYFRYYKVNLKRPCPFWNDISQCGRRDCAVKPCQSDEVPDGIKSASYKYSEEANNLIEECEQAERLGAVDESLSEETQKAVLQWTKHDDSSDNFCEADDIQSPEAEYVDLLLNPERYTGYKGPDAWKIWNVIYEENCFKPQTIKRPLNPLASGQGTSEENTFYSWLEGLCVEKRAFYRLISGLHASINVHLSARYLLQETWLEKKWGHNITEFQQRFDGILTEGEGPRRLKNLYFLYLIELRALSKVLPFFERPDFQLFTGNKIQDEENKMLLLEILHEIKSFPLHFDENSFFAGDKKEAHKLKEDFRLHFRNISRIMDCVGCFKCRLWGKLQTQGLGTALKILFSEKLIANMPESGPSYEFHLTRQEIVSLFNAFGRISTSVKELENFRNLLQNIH
UniProt Q96ME1: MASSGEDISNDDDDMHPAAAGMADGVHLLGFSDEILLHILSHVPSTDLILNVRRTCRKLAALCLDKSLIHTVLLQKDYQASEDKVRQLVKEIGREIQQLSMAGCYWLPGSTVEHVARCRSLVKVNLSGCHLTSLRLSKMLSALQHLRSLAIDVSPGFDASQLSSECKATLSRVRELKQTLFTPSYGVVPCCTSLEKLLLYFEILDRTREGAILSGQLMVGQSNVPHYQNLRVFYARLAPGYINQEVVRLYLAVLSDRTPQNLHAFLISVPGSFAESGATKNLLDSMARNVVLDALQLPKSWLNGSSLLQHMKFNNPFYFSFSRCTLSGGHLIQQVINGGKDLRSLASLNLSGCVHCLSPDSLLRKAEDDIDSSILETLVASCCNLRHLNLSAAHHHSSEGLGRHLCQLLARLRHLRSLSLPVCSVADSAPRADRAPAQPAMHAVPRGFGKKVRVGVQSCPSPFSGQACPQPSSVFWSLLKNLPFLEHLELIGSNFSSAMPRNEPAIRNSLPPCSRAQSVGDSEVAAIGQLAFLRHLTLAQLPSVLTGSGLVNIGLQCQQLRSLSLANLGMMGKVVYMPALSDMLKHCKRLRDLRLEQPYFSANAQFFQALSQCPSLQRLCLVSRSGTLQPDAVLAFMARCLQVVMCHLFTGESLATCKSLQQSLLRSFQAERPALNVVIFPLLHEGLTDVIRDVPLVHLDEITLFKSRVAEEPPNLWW
UniProt Q96QE3: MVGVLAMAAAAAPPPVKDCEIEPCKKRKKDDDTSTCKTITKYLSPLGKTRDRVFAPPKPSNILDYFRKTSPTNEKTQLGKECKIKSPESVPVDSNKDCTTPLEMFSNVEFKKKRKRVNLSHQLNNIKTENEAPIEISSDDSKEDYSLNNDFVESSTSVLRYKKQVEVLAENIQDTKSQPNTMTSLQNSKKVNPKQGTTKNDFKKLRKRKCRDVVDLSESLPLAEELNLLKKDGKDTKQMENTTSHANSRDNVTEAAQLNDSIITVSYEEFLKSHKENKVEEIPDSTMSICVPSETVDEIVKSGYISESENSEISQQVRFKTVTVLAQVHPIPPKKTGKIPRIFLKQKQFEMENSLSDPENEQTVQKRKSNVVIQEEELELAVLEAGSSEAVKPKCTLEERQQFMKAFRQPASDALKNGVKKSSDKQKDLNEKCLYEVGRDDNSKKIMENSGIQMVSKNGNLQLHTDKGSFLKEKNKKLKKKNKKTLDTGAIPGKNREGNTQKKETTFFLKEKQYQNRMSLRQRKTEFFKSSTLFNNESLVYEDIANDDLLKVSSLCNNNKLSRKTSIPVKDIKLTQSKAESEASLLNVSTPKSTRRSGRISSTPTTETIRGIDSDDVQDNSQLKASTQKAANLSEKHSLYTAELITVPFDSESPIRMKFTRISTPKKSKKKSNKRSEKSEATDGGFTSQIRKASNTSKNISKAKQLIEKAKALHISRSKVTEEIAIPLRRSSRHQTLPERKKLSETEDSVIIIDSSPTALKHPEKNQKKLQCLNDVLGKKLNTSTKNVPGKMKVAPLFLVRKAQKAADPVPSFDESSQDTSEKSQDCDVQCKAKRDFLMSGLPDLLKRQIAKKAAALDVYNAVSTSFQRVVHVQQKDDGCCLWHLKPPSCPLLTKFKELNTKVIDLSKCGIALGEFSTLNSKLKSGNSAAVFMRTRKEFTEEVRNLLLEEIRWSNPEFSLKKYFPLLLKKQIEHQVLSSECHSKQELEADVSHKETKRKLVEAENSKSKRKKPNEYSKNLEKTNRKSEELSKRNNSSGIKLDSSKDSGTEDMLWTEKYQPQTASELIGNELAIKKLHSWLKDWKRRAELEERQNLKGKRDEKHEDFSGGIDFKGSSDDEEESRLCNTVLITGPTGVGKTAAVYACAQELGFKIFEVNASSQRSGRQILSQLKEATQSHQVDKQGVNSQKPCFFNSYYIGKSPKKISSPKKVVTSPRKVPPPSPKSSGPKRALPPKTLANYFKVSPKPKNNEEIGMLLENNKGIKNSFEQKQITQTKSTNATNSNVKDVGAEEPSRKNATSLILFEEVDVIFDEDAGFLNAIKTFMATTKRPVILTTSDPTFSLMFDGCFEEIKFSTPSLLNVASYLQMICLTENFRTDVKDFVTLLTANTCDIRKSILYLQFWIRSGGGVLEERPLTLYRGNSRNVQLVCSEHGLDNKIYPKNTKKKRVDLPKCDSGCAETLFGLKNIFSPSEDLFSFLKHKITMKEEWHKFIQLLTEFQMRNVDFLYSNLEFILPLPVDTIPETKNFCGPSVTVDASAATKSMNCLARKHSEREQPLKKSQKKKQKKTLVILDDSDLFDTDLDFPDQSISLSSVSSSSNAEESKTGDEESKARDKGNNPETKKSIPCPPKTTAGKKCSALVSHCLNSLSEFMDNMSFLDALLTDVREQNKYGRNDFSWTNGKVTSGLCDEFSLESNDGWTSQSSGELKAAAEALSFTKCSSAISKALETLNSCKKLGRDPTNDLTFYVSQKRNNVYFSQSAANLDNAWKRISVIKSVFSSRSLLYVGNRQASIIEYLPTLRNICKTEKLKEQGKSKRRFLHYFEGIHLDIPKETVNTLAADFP
UniProt Q96PU5: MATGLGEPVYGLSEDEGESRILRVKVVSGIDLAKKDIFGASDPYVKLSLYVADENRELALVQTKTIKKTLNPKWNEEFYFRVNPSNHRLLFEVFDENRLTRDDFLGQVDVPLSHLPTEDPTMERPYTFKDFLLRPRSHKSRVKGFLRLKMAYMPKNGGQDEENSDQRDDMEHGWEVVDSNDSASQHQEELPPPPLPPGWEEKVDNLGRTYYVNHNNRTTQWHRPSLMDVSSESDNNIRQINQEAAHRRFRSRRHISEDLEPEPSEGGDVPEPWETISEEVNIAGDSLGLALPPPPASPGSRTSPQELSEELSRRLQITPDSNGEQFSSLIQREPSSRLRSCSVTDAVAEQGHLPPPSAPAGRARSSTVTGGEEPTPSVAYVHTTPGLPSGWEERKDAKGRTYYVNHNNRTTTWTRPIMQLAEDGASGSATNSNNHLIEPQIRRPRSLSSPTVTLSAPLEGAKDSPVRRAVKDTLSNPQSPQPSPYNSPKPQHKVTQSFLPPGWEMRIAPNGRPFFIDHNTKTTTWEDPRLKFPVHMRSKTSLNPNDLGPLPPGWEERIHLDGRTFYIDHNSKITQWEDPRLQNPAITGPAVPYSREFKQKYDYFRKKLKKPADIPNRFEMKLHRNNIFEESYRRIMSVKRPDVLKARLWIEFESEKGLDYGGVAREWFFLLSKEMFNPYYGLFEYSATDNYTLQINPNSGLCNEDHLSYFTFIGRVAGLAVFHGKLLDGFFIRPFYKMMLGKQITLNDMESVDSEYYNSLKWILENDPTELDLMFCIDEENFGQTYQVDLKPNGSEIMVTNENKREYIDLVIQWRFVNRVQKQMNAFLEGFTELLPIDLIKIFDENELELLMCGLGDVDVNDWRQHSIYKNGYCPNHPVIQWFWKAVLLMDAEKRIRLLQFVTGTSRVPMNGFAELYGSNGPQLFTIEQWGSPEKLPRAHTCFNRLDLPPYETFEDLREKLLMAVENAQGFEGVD
UniProt Q96RS0: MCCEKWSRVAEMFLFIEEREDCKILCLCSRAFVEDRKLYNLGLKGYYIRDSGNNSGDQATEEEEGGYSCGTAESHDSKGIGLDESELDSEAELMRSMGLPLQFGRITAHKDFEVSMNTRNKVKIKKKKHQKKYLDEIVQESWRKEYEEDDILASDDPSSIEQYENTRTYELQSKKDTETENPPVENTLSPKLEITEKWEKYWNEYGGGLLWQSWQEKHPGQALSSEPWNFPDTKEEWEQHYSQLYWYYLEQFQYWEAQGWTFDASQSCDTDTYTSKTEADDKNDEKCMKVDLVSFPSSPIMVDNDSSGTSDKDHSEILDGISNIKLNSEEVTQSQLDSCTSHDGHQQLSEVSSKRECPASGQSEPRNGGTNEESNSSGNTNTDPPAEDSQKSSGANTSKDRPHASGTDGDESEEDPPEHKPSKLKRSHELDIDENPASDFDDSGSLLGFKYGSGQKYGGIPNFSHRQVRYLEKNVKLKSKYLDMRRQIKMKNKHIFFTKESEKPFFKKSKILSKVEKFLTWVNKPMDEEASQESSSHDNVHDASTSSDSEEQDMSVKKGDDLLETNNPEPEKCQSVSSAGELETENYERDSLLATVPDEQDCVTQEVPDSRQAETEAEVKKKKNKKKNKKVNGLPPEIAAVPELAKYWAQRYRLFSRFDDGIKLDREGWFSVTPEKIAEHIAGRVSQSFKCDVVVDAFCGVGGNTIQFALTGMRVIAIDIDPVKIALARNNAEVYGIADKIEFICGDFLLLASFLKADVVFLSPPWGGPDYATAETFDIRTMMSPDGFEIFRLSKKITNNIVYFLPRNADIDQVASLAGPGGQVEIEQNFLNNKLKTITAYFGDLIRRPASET
UniProt Q96QF0: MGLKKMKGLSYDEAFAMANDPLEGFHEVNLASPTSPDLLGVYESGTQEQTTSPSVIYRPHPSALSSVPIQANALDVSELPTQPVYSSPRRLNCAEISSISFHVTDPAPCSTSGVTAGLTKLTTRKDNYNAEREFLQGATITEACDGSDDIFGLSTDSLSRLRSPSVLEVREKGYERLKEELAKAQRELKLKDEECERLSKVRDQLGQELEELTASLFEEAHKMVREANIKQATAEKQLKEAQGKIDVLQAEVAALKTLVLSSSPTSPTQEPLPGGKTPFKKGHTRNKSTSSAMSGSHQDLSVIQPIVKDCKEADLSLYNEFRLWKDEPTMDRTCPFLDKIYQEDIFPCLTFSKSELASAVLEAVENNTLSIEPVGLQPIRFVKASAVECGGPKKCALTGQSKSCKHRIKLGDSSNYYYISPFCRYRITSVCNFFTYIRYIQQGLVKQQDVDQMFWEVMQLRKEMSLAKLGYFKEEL

Each target was assayed with CN[C@@H]1C[C@H]2O[C@@](C)([C@@H]1OC)n1c3ccccc3c3c4c(c5c6ccccc6n2c5c31)C(=O)NC4 [staurosporine] (assay: log2 fold change of tryptic peptide abundance, ligand vs vehicle (limited proteolysis) (log2 ratio); higher = more trypsin-susceptible (destabilized)). Settings: ligand concentration: 20 uM; sample: K562 cleared lysate; digestion: 4 min, 22 C (HT-PELSA RT4min, Orbitrap Astral).

Target | log2 fold change
UBE2E2 (peptide sequence: ESVQQEPEREQVQPK, peptide start residue: 25) (UniProt Q96LR5) | -0.22
PLEKHF1 (peptide sequence: IAAVESCFGASGQPLALPGR, peptide start residue: 15) (UniProt Q96S99) | 0.152
UniProt Q96HE7 (peptide sequence: FDGILTEGEGPRR, peptide start residue: 288) | 0.524
UniProt Q96RK0 (peptide sequence: VPGGSPLGVSLVYSDKK, peptide start residue: 717) | -0.881
FBXL18 (peptide sequence: CTLSGGHLIQQVINGGK, peptide start residue: 324) (UniProt Q96ME1) | 0.417
ATAD5 (peptide sequence: SKVTEEIAIPLRR, peptide start residue: 718) (UniProt Q96QE3) | 0.435
NEDD4L (peptide sequence: KPADIPNRFEMK, peptide start residue: 610) (UniProt Q96PU5) | 0.397
TGS1 (peptide sequence: DFEVSMNTR, peptide start residue: 111) (UniProt Q96RS0) | -0.319
RAB3IP (peptide sequence: TLVLSSSPTSPTQEPLPGGKTPFKK, peptide start residue: 257) (UniProt Q96QF0) | 0.323
